In patent US6893834B2, “Assay for kinases and phosphatases” (Promega Corporation, priority 2000, dated 2005):
For at least one compound, name, drawing or mass did not settle the structure.

Tested on: PI-3K
Assay: Inhibition of PI-3K activity, membrane-bound lipid substrate 32P assay
Assay type: biochemical
Conditions: partially purified PI-3K; wortmannin final concentration 100 nM; different periods of time; FIG. 8

Question: `COC[C@H]1OC(=O)c2coc3c2[C@@]1(C)C1=C(C3=O)[C@@H]2CCC(=O)[C@@]2(C)C[C@H]1OC(C)=O` [wortmannin] was tested. Which “radiolabeled product formed (CPM) in presence of inhibitor” value did it give?
Answer: The value was “greatly reduced radiolabeled product”.
